Source: publication PMC4477473
The exact form of at least one protein or probe is not confirmed. Tags and fusion partners may be left off the protein sequences shown.

Biological target: T1, Imp (IGF-II mRNA-binding protein) (UniProt Q9VZ69)
T1 sequence (looked up, limits assumed): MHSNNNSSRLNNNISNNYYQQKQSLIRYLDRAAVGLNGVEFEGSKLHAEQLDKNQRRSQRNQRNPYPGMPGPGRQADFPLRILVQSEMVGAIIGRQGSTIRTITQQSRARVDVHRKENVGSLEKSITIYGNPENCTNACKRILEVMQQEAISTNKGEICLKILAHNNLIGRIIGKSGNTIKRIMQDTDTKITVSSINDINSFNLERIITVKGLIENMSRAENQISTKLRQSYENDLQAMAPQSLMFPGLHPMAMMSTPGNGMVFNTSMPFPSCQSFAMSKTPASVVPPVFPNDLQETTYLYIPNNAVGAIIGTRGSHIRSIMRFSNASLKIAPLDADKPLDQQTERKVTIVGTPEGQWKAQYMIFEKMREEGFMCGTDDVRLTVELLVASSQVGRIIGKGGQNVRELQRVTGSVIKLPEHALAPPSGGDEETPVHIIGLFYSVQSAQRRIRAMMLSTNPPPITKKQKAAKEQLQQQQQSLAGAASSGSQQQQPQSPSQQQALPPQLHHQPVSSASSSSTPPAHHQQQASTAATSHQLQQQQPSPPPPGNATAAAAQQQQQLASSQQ
Assay: EMSA
Settings: oligomerization at increasing Imp, 20 mM Tris-HCl pH 7.8, 140 mM KCl, 2 mM MgCl2, 0.1% Triton X- (text cut), 100 ng E. coli tRNA, 10 ul, 30 min at 30 C, native PAGE in 90 mM Tris-borate pH 8.3, recombinant protein, protein details: His tag (pET28a, Ni-agarose), label: 32P, probe letters rebuilt from the primers and the genome

Sequence | binding result (Imp 12.5-100 nM (Fig. 2c), 2.5-67.5 nM (Fig. S2i)) | binding result (Imp 12.5-100 nM)
GGGCAUUCACUGAUGCUUUGCGCAGGGGAGGAUUGCCAAGGACACACAAUUAACACAGAAAAACAAAGCGAAAAAUCUACGGCUUUUUCUUUUCUAAUCCCAGAAACAUCAACAAAAGCAAUUUCAAUCAUUUAAUUUCGAACGCAUUUACGCAAGUACACGAAGCAAAAGAAGAAAGUCACGCAAUCAAAUUCUGCAGUCC [pAbp 3'UTR segment] | binds | 
GGGUUGAAACACACAAACACCCACACUACACACACACACACCCACUUUCCCGCCAGCAAUCCCAUAAAAUAGUUAUUUAAAUAGUUUCACCUUUUGUUUUGUUUAACAAAACACUAAACAACAAGCAACCAGAACAGAAACGACAACAAACAAACAAAAAACAAAACACACGAAACGCGUAAUCAAAGCUUUGAUUCAAUGUCU [sqd 3'UTR segment] |  | binds
